# Measured values: ChEMBL document CHEMBL4316593 (Eur J Med Chem, 2019)
# This continues a long series; more values of the same kind are listed elsewhere.
# Columns and labels:
# Assay type in all cases: cell-based
# Settings in all cases: U-87MG ATCC
# [1] = Inhibition of RTK/PI3K/AKT/mTOR signaling in human U87 cells assessed as up regulation of CNPY3 gene expression at cytotoxic IC50 measured after 48 hrs relative to control
# [2] = Inhibition of RTK/PI3K/AKT/mTOR signaling in human U87 cells assessed as up regulation of EH domain containing 2 gene expression at cytotoxic IC50 measured after 48 hrs relative to control
# [3] = Inhibition of RTK/PI3K/AKT/mTOR signaling in human U87 cells assessed as up regulation of NmrA like redox sensor 1 gene expression at cytotoxic IC50 measured after 48 hrs relative to control
# [4] = Inhibition of RTK/PI3K/AKT/mTOR signaling in human U87 cells assessed as down regulation of MYL12A gene expression at cytotoxic IC50 measured after 48 hrs relative to control
# [5] = Inhibition of RTK/PI3K/AKT/mTOR signaling in human U87 cells assessed as down regulation of STAU1 gene expression at cytotoxic IC50 measured after 48 hrs relative to control
# [6] = Inhibition of RTK/PI3K/AKT/mTOR signaling in human U87 cells assessed as down regulation of FBXO33 gene expression at cytotoxic IC50 measured after 48 hrs relative to control
# [7] = Inhibition of RTK/PI3K/AKT/mTOR signaling in human U87 cells assessed as up regulation of EFNA4 gene expression at cytotoxic IC50 measured after 48 hrs relative to control
# [8] = Inhibition of RTK/PI3K/AKT/mTOR signaling in human U87 cells assessed as down regulation of LIG1 gene expression at cytotoxic IC50 measured after 48 hrs relative to control
# [9] = Inhibition of RTK/PI3K/AKT/mTOR signaling in human U87 cells assessed as down regulation of NSFL1C gene expression at cytotoxic IC50 measured after 48 hrs relative to control
# [10] = Inhibition of RTK/PI3K/AKT/mTOR signaling in human U87 cells assessed as up regulation of unc-5 netrin receptor B gene expression at cytotoxic IC50 measured after 48 hrs relative to control
# [11] = Inhibition of RTK/PI3K/AKT/mTOR signaling in human U87 cells assessed as down regulation of MRPL18 gene expression at cytotoxic IC50 measured after 48 hrs relative to control
# [12] = Inhibition of RTK/PI3K/AKT/mTOR signaling in human U87 cells assessed as down regulation of YRDC gene expression at cytotoxic IC50 measured after 48 hrs relative to control
# [13] = Inhibition of RTK/PI3K/AKT/mTOR signaling in human U87 cells assessed as up regulation of MAPK regulated corepressor interacting protein 2 gene expression at cytotoxic IC50 measured after 48 hrs relative to control
# [14] = Inhibition of RTK/PI3K/AKT/mTOR signaling in human U87 cells assessed as down regulation of C2orf42 gene expression at cytotoxic IC50 measured after 48 hrs relative to control
# [15] = Inhibition of RTK/PI3K/AKT/mTOR signaling in human U87 cells assessed as down regulation of CTR9 gene expression at cytotoxic IC50 measured after 48 hrs relative to control
# [16] = Inhibition of RTK/PI3K/AKT/mTOR signaling in human U87 cells assessed as up regulation of KRT81 gene expression at cytotoxic IC50 measured after 48 hrs relative to control
# [17] = Inhibition of RTK/PI3K/AKT/mTOR signaling in human U87 cells assessed as up regulation of RNF213 gene expression at cytotoxic IC50 measured after 48 hrs relative to control
# [18] = Inhibition of RTK/PI3K/AKT/mTOR signaling in human U87 cells assessed as down regulation of TPPP gene expression at cytotoxic IC50 measured after 48 hrs relative to control
# [19] = Inhibition of RTK/PI3K/AKT/mTOR signaling in human U87 cells assessed as down regulation of ZEB1 gene expression at cytotoxic IC50 measured after 48 hrs relative to control
# [20] = Inhibition of RTK/PI3K/AKT/mTOR signaling in human U87 cells assessed as up regulation of PKD1 gene expression at cytotoxic IC50 measured after 48 hrs relative to control
# [21] = Inhibition of RTK/PI3K/AKT/mTOR signaling in human U87 cells assessed as up regulation of fucosyltransferase 11 gene expression at cytotoxic IC50 measured after 48 hrs relative to control
# [22] = Inhibition of RTK/PI3K/AKT/mTOR signaling in human U87 cells assessed as down regulation of CPEB2 gene expression at cytotoxic IC50 measured after 48 hrs relative to control
# [23] = Inhibition of RTK/PI3K/AKT/mTOR signaling in human U87 cells assessed as down regulation of TGOLN2 gene expression at cytotoxic IC50 measured after 48 hrs relative to control
# [24] = Inhibition of RTK/PI3K/AKT/mTOR signaling in human U87 cells assessed as up regulation of coiled-coil domain containing 57 gene expression at cytotoxic IC50 measured after 48 hrs relative to control
# [25] = Inhibition of RTK/PI3K/AKT/mTOR signaling in human U87 cells assessed as up regulation of receptor-like tyrosine kinase gene expression at cytotoxic IC50 measured after 48 hrs relative to control
# [26] = Inhibition of RTK/PI3K/AKT/mTOR signaling in human U87 cells assessed as down regulation of MCM5 gene expression at cytotoxic IC50 measured after 48 hrs relative to control
# [27] = Inhibition of RTK/PI3K/AKT/mTOR signaling in human U87 cells assessed as down regulation of NSF gene expression at cytotoxic IC50 measured after 48 hrs relative to control
# [28] = Inhibition of RTK/PI3K/AKT/mTOR signaling in human U87 cells assessed as down regulation of NQO2 gene expression at cytotoxic IC50 measured after 48 hrs relative to control
# [29] = Inhibition of RTK/PI3K/AKT/mTOR signaling in human U87 cells assessed as up regulation of RNA guanine-7 methyltransferase gene expression at cytotoxic IC50 measured after 48 hrs relative to control
# [30] = Inhibition of RTK/PI3K/AKT/mTOR signaling in human U87 cells assessed as up regulation of MIR210HG gene expression at cytotoxic IC50 measured after 48 hrs relative to control
# [31] = Inhibition of RTK/PI3K/AKT/mTOR signaling in human U87 cells assessed as down regulation of CAMSAP1 gene expression at cytotoxic IC50 measured after 48 hrs relative to control
# [32] = Inhibition of RTK/PI3K/AKT/mTOR signaling in human U87 cells assessed as down regulation of MTFR2 gene expression at cytotoxic IC50 measured after 48 hrs relative to control
smiles,measurement,setting,value
CC(=O)C(=NNc1ccccc1C#N)C(C)=O,log2FC,[1],1.58
same,log2FC,[2],0.917
same,log2FC,[3],0.8
same,log2FC,[4],-0.418
same,log2FC,[5],-0.552
same,log2FC,[6],-0.934
same,log2FC,[7],1.76
same,log2FC,[8],-0.698
same,log2FC,[9],-0.732
same,log2FC,[10],1.38
same,log2FC,[11],-0.949
same,log2FC,[12],-0.846
same,log2FC,[13],1.43
same,log2FC,[14],-1.04
same,log2FC,[15],-0.603
same,log2FC,[16],1.98
same,log2FC,[17],0.518
same,log2FC,[18],-1.07
same,log2FC,[19],-1.62
same,log2FC,[20],0.587
same,log2FC,[21],1.54
same,log2FC,[22],-4.32
same,log2FC,[23],-0.647
same,log2FC,[24],1.01
same,log2FC,[25],0.952
same,log2FC,[26],-1.58
same,log2FC,[27],-0.559
same,log2FC,[28],-0.567
same,log2FC,[29],0.959
same,log2FC,[30],3.5
same,log2FC,[31],-1.02
same,log2FC,[32],-1.5
